Laboratory results: PubChem BioAssay AID1439 (NMMLSC, 2008)
In all, about 220,000 compounds went through this assay and about 770 (0.35%) were called active. Inconclusive results, whose numbers are uncertain, are shown with a selection of clear calls. Cut-off read from the data, not from the text of the source: active = binding response below about 49% or above about 150%; inconclusive = no clear call, values can overlap the other calls; inactive = in between.

The chains behind the UniProt entries cited, without tags or fusion partners.
UniProt P09471, whole entry, looked up: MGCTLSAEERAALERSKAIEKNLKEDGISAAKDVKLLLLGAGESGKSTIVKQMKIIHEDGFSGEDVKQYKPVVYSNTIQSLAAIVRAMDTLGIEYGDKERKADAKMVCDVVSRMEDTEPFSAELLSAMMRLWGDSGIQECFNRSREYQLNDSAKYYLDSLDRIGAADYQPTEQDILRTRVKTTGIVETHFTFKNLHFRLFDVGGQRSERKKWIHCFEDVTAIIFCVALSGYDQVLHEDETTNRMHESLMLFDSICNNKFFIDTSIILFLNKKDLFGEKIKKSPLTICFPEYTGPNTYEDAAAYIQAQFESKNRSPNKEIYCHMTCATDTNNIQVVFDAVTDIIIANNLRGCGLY

biological target: Guanine nucleotide-binding protein G(o) subunit alpha (Homo sapiens) (UniProt P09471); assay: RGS7-Galphao binding modulators, primary screen, biochemical, multiplexed bead flow cytometry (AID 1439); conditions: at 10 µM, actives lie on both sides;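 note: fluorescent Galphao held in activated GDP-AlF4 state binding bead-coupled RGS7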

| Compound | binding response (% of control) |
| --- | --- |
| O=C1/C(=C/c2ccc(O)c(O)c2)Oc2cc(O)ccc21 | inconclusive: 55% |
| O=C(COc1ccc(NS(=O)(=O)c2ccc(F)cc2)cc1)N1CCOCC1 | inactive: 99% |
| O=S(=O)(Nc1cc2nc3ccccc3nc2n1Cc1ccccc1)c1ccc(Cl)cc1 | inactive: 97.5% |
| O=S(=O)([N-]c1nc2ccccc2nc1-n1cc[n+](Cc2ccccc2)c1)c1ccccc1 | inconclusive: 55.2% |
| CSc1ccc(S(=O)(=O)N(CC(=O)NN=C2CCN(C)CC2)c2ccc(C)cc2)cc1 | active: 174% [activator] |
| O=C(O)[C@H](Cc1ccccc1)NC(=O)N1CCN(c2cccc(C(F)(F)F)c2)CC1 | inconclusive: 136% |
| Cc1cc(C)c(-n2nnnc2SCC(=O)c2cc3ccccc3o2)c(C)c1 | inconclusive: 101% |
| Fc1ccccc1/C=N/n1cc(-c2ccccc2)[nH]c1=S | inconclusive: 76.4% |
| C=CCOC(=O)C1=C(C)N=c2s/c(=C3\C(=O)N(CC(=O)O)c4ccccc43)c(=O)n2C1c1ccc(OC)cc1 (centres undefined) | inconclusive: 141% |
| COc1cc(S(=O)(=O)N2CCN(C(=O)c3ccccc3)CC2)c(OC)cc1Br | inactive: 100% |
| Cc1cccn(Cc2c(F)cccc2Cl)c1=O | inconclusive: 30.9% |
| C=CCn1c(SCC(=O)NC23CC4CC(CC(C4)C2)C3)nc2cc(C(=O)O)ccc2c1=O | inactive: 101% |
| O=C(Oc1ccccc1)c1cccc2cccc(C(=O)Oc3ccccc3)c12 | inconclusive: 122% |
| Cc1ccc(C2=NCN(c3ccc(C(=O)O)cc3)C(=S)N2)cc1 | inactive: 102% |
| O=C(NNC(=S)Nc1ccc(Cl)c(Cl)c1)c1cccc([N+](=O)[O-])c1 | inconclusive: 105% |
| CC(=O)Nc1ccc(NS(=O)(=O)c2ccc(-c3csc(C)n3)s2)cc1 | inconclusive: 92.8% |
| O=c1[nH]c(SCc2cccc(F)c2)nc2ccccc12 | inconclusive: 90.1% |
| COc1ccc(-c2cc3cc(OC)c(OC)cc3c(C)n2)cc1C | inconclusive: 129% |
| O=C(Cn1nc(C(=O)O)c2ccccc2c1=O)NCc1ccco1 | inconclusive: 102% |
| O=C(NC1CCCCC1)c1cc2ccccc2cc1O | inconclusive: 141% |
| COc1ccc(/C=N/NC(=O)CCn2nc(C)cc2C)cc1O | inconclusive: 116% |
| COCCn1c(-c2ccc(F)cc2)nc2oc3cc(OC)ccc3c(=O)c2c1=O | inconclusive: 46.2% |
| CCc1cccc(NC(=S)N(CCN(C)C)C(C)c2ccncc2)c1 (centres undefined) | inconclusive: 113% |

Seven entries from above, tab-delimited:
Compound	binding response (% of control)
Cc1cc(C)c(-n2nnnc2SCC(=O)c2cc3ccccc3o2)c(C)c1	inconclusive: 101%
Fc1ccccc1/C=N/n1cc(-c2ccccc2)[nH]c1=S	inconclusive: 76.4%
C=CCOC(=O)C1=C(C)N=c2s/c(=C3\C(=O)N(CC(=O)O)c4ccccc43)c(=O)n2C1c1ccc(OC)cc1 (centres undefined)	inconclusive: 141%
COc1cc(S(=O)(=O)N2CCN(C(=O)c3ccccc3)CC2)c(OC)cc1Br	inactive: 100%
Cc1cccn(Cc2c(F)cccc2Cl)c1=O	inconclusive: 30.9%
C=CCn1c(SCC(=O)NC23CC4CC(CC(C4)C2)C3)nc2cc(C(=O)O)ccc2c1=O	inactive: 101%
O=C(Oc1ccccc1)c1cccc2cccc(C(=O)Oc3ccccc3)c12	inconclusive: 122%

Next part.

| Compound | binding response (% of control) |
| --- | --- |
| Cc1cc(C)n(C(=O)Cn2nc([N+](=O)[O-])c(Br)c2C)n1 | inactive: 98.5% |
| COC(=O)c1ccsc1NC(=O)c1ccc(Cl)s1 | inconclusive: 117% |
| COc1ccc(/C=N/NC(=O)c2ccccc2NC(=O)c2ccco2)c(OC)c1 | inconclusive: 64.6% |
| CC(=O)Nc1ccc(S(=O)(=O)Nc2nc3ccccc3nc2Nc2cccc(O)c2)cc1 | inconclusive: 93.5% |
| CCOC(=O)Cc1csc(NC(=O)COc2cc(C)cc(C)c2)n1 | inactive: 105% |
| O=C(NCc1csc(-c2cccs2)n1)c1ccsc1 | inconclusive: 105% |
| CC(C)c1ccc(NC(=O)CSC(C)c2nc3ccccc3c(=O)[nH]2)cc1 (centres undefined) | inconclusive: 127% |
| COc1ccccc1NC(=O)c1ccc(NC(=O)CSc2ncn[nH]2)cc1 | inactive: 97.6% |
| C[C@H](NC(=O)c1nc[nH]c1C(=O)NC(c1ccccc1)c1ccccc1)C(=O)OCc1ccccc1 | inconclusive: 119% |
| c1csc(-c2nnc(COc3ncnc4sccc34)o2)c1 | inconclusive: 112% |
| CC(C)=CC(=O)OCC(=O)Nc1ccccc1Cl | inactive: 101% |
| Cc1ccc(S(=O)(=O)N(C)C)cc1NC(=O)COC(=O)c1ccc2c(c1)NC(=O)CS2 | inconclusive: 106% |
| CC(=O)c1cnc(N(C)C)s1 | inactive: 100% |
| COC(=O)/C=C/COc1ccccc1[N+](=O)[O-] | inactive: 92.9% |
| COc1cc(/C=N/NC(=O)c2cc(-c3ccccc3)sc2N)cc(OC)c1OC | inconclusive: 97.4% |
| O=S(=O)(NCC(Nc1ccc(Cl)cc1)c1ccccc1)c1ccccc1 (centres undefined) | inactive: 101% |
| CCOC(=O)c1sc(N2N=C(C)C(N=Nc3cccc(C)c3)C2=O)nc1C (centres undefined) | inconclusive: 112% |
| N/C(=N\N=C\c1ccco1)SC1CC(=O)N(c2ccc(C(=O)O)cc2)C1=O (centres undefined) | inconclusive: 106% |
| CCn1c(SCC(=O)c2ccccc2)nc2ccccc2c1=O | inconclusive: 127% |
| CC(=O)N1CCN(S(=O)(=O)c2ccc(F)c(Cl)c2)CC1 | inconclusive: 96% |
| Nc1c(Cl)cnc(C(Cl)(Cl)Cl)c1Cl | inconclusive: 86.5% |
| CSc1cccc(NC(=O)Nc2nc3c(C)cccc3s2)c1 | inconclusive: -472% |
| O=C(COC(=O)c1cc[n+]([O-])cc1)Nc1ccc([N+](=O)[O-])cc1Cl | inconclusive: 54% |

| Compound | binding response (% of control) |
| --- | --- |
| Cc1cc(C)cc(NC(=S)N2CCN(c3ncc(C(F)(F)F)cc3Cl)CC2)c1 | inconclusive: 59.8% |
| C/C(=N\NC(=O)c1c(Br)c(C)nn1C)c1cccc(NC(=O)c2ccccc2F)c1 | inactive: 99.7% |
| Cc1ccc(-c2csc(NC(=O)CSc3nc4ccccc4c(=O)n3CCCN(C)C)n2)cc1 | inactive: 100% |
| CCN(C(=O)COC(=O)c1ccc2c(=O)n3c(nc2c1)CCC3)C1CCS(=O)(=O)C1 (centres undefined) | inconclusive: 107% |
| O=C(CCCn1c(=O)oc2ccccc21)N1CCN(c2ccc(F)cc2)CC1 | inconclusive: 115% |
| CCOC(=O)c1ccc(S(=O)(=O)N2CCN(S(=O)(=O)CC)CC2)cc1 | inactive: 104% |
| COc1ccccc1-n1c(-c2ccc(Cl)cc2)c[nH]c1=S | inactive: 101% |
| O=C(NC(=O)c1ccccc1O)c1ccc(C(F)(F)F)cc1 | inconclusive: 101% |
| COCCn1c(C)cc(/C=C2/NC(=O)N(Cc3ccc(C)cc3)C2=O)c1C | inconclusive: 97% |
| Cc1ncc([N+](=O)[O-])n1CCOC(=O)NC(Nc1ccc(F)cc1)C(Cl)(Cl)Cl (centres undefined) | inconclusive: 103% |
| CSCCC(NS(=O)(=O)c1ccc(F)cc1)C(=O)NCc1ccc(S(N)(=O)=O)cc1 (centres undefined) | inconclusive: 98.8% |
| O=C(CSc1cccc[n+]1[O-])Nc1ccc(C(F)(F)F)cc1[N+](=O)[O-] | inactive: 99.3% |
| C=CCc1ccc(OCCCCNC2CCCC2)c(OC)c1 | inconclusive: 120% |
| COc1ccc(Cn2c(=O)n(Cc3ccco3)c(=N)c3c4c(sc32)COC(C)(C)C4)cc1 | active: 175% [activator] |
| CCOc1ccc2nc(COC(=O)c3cccs3)c(C(C)=O)[n+]([O-])c2c1 | inconclusive: 80.1% |
| Cc1ccc(NC(=O)CN(C)CC(=O)Nc2ccc(N3CCOCC3)cc2)c([N+](=O)[O-])c1 | inactive: 106% |
| CCOn1c(=O)c(=O)n(OC)c2ccccc21 | inconclusive: 111% |
| O=C(O)c1ccc(N/N=C/C2=Cc3ccccc3OC2)cc1 | inconclusive: 58.6% |
| Cc1nnc(SCc2ccc([N+](=O)[O-])cc2)o1 | inactive: 100% |
| C=CCSc1nc(C)c(CC(=O)OCC(C)C)c(=O)[nH]1 | inactive: 108% |
| c1ccc2c(c1)OCCOCCOCCO2 | inconclusive: 111% |
| Cc1cc2c(c(=O)o1)C(CCC1CCCCC1)C(C#N)=C(N)O2 (centres undefined) | inconclusive: 87.9% |
| COc1ccc(CNC(=O)COC(=O)c2ccc(F)c(S(=O)(=O)N3CCCCC3)c2)cc1OC | inconclusive: 2.85% |

| Compound | binding response (% of control) |
| --- | --- |
| CC(C)(C)c1cc(C(=O)N/N=C/c2ccccn2)n[nH]1 | inconclusive: 59.9% |
| COCc1cc(=O)n2[nH]c(-c3cccs3)cc2n1 | inconclusive: 103% |
| Cc1ccccc1NC(=O)CSc1ccncc1 | inconclusive: 68.8% |
| C1CCc2c(nc3nnnn3c2NCC2CC2)C1 | inconclusive: 101% |
| S=c1[nH]nc(CSCCOc2ccccc2)o1 | inconclusive: 38.3% |
| COCCNc1nc(-c2cc3ccccc3o2)cs1 | inactive: 98.3% |
| N/C(=N\OC(=O)/C=C/c1ccccc1)c1cccnc1 | inconclusive: 122% |
| CC1CCc2c(sc(NC(=O)c3ccccc3C(=O)O)c2C#N)C1 (centres undefined) | inactive: 128% |
| CC(=O)O[C@H]1C(=O)[C@@]2(C)[C@H]([C@H](OC(=O)c3ccccc3)[C@]3(O)C[C@H](OC(=O)[C@H](O)C(NC(=O)c4ccccc4)c4ccccc4)C(C)=C1C3(C)C)[C@]1(OC(C)=O)CO[C@@H]1C[C@@H]2O (some centres undefined) | inconclusive: 84.5% |
| FC(F)(F)c1cc(Oc2ccc(Cl)cc2)ncc1-c1nnc(-c2ccc(Cl)cc2)o1 | inconclusive: 67.4% |
| c1ccc(-c2ccc3c(c2)NCCN3)cc1 | inconclusive: 104% |
| O=C(Cc1ccccc1)Nc1ccccc1C(=O)N1CCCCCC1 | inconclusive: 87.8% |
| CC(C)n1c(CSCc2ccc(Cl)cc2Cl)n[nH]c1=S | inconclusive: 108% |
| Cc1ccc2c(CC(=O)NCCc3ccc(S(N)(=O)=O)cc3)coc2c1 | inconclusive: 129% |
| COc1cc(C(=O)COC(=O)CNC(=O)C2CCCCC2)cc(OC)c1OC | inactive: 107% |
| CCC1=Nc2cc(C(=O)NCc3cccnc3)ccc2Sc2ccc(C)cc21 | inconclusive: 91.2% |
| Cn1c2[n+](c3ccc(Cl)cc3c1=O)Cc1ccccc1-2 | inconclusive: 94.6% |
| O=C(c1ccccc1)C(C(=O)N1CCc2ccccc2C1)n1ccccc1=O (centres undefined) | inactive: 105% |
| Cc1nnc(NC(=O)CSc2ccc3nnc(-c4cccnc4)n3n2)s1 | inactive: 103% |
| Cc1c(C(=O)Nc2ccccc2)sc2nc3n(c(=O)c12)CCCCC3 | inactive: 94.2% |
